Experimental data from PubChem BioAssay AID652054 (National Center for Advancing Translational Sciences (NCATS), 2013).
Several values for one entry are separate records, joined by “and”; a condition that tells them apart may be missing. Equal values may be shown once. The whole screen tested about 360,000 compounds, of which about 9,100 (2.5%) were called active. Inconclusive results, whose numbers are uncertain, are shown with a selection of clear calls. Rule as the data show it: active = max response below about -50%; inconclusive = no clear call, values can overlap the other calls; inactive = above that.

Protein sequences, listed by entry. Tags and fused reporters are not part of them.
UniProt P35462, whole entry, looked up: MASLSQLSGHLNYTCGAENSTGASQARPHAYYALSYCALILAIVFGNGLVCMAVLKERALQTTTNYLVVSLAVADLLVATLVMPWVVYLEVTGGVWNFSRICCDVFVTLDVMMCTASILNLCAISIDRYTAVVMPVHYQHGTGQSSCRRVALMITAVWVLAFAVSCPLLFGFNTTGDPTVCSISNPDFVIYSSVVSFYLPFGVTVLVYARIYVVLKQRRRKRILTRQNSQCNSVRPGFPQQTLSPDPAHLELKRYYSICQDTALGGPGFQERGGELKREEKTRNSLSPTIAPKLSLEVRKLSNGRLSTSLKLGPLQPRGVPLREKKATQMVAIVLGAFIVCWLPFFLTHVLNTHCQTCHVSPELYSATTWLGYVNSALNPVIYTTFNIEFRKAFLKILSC

biological target: D(3) dopamine receptor (Homo sapiens) (UniProt P35462); experiment: qHTS of D3 Dopamine Receptor Antagonist: qHTS; settings: D3R cells, DiscoveRx beta-arrestin luminescence, antagonist mode; stronger effect = lower value
In short: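 Cells plated overnight at 1500 cells/well, then exposed to library compounds with dopamine controls for 90 minutes at 37 degrees C. DiscoveRx reagent added for 30–60 minutes at room temperature; luminescence read, quantitative HTS format.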
% is scaled to controls: 0 for no effect and ±100 for the full control effect.

| SMILES | max response, negative = inhibition |
| --- | --- |
| Cc1cc(Cl)ccc1OCC(=O)NCCOc1nc(N2CCOCC2)nc(N2CCOCC2)n1 | inactive: 0.645% |
| COc1ccc(/C=C/C(=O)N[C@@H](C)C(=O)O)cc1 | inconclusive: -30.2% |
| CSCC[C@H](NC(=O)[C@@H]1CSC2c3ccccc3C(=O)N21)C(=O)N1CCC[C@H]1CO (some centres not stated) | inconclusive: -36.1% |
| CN(C)CCOC(C1CCCCC1)C1CCCCC1 | inconclusive: -39.5% |
| Cc1nc(SCC#N)c2c3c(sc2n1)CCC3 | inconclusive: -34.2% |
| COc1cccc(-c2coc3c(C)c4oc(=O)c(CC(=O)O)c(C)c4cc23)c1 | inconclusive: -39.1% |
| CCOC(=O)C1CCCN(CCCc2ccccc2)C1 (configuration not stated) | active: -85.2% and active: -65.3% |
| CCCCC1=NN2C(=N)CC(=O)N=C2S1 | inactive: -27.2% |
| CN1CCC(=C2c3ccccc3C(O)c3ccccc32)CC1 (configuration not stated) | active: -79.6% |
| CCCN1CCCc2ccccc21 | inactive: 24.5% |
| O=c1[nH]cc(S(=O)(=O)N2CCN(c3cccc(Cl)c3)CC2)c(=O)[nH]1 | inconclusive: -48.8% |
| COc1ccc(NC(=S)N(CCC(C)C)C2CCN(C(C)C)CC2)cc1Cl | inconclusive: -46.3% |
| COc1ccccc1N1CCN(S(=O)(=O)CCNC(=O)CCc2ccccc2)CC1 | inactive: -14.8% |
| O=C(/C=C/c1ccc(Cl)c([N+](=O)[O-])c1)Nc1ccc(N2CCCC2)c(Cl)c1 | inconclusive: -34.3% |
| Brc1cccc(OCCN2CCOCC2)c1 | inconclusive: -46.5% |
| COC(=O)C[C@H]1C[C@H]2c3cc(NC(=O)Nc4ccc(C(F)(F)F)cc4)ccc3O[C@H]2[C@@H](CO)O1 | inconclusive: -37.9% |
| COc1ccc(C2(c3ccc(OC(C)=O)cc3OC(C)=O)CC(c3ccccc3)NC(=S)N2)cc1 (configuration not stated) | inconclusive: -32.2% |
| O=C(CN1CCN(Cc2ccccc2)CC1)N=Nc1c(O)[nH]c2ccccc12 | inconclusive: -34.8% |
| CC(=O)c1ccc(OCC(O)CN(C)Cc2cccs2)cc1 (configuration not stated) | inconclusive: -40.2% |
| Cc1ccc(S(=O)(=O)NC(=O)C2(C)CCN2C(=O)CCc2ccc(Cl)cc2Cl)cc1 (configuration not stated) | inconclusive: -36.1% |
| COc1ccc(Cl)cc1NC(=O)CSc1nc(=O)n(CCN(C)C)c2c1CCCC2 | inactive: -20.6% |
| COc1cc([N+](=O)[O-])cc(/C=N/NC(=O)CSc2nnc(-c3ccccc3)n2C)c1O | active: -51.9% |

As entered above.
Entry for Cc1nc(SCC#N)c2c3c(sc2n1)CCC3 under max response, negative = inhibition: inconclusive: -34.2%
Entry for COc1ccc(C2(c3ccc(OC(C)=O)cc3OC(C)=O)CC(c3ccccc3)NC(=S)N2)cc1 (configuration not stated) under max response, negative = inhibition: inconclusive: -32.2%
Entry for COc1ccccc1N1CCN(S(=O)(=O)CCNC(=O)CCc2ccccc2)CC1 under max response, negative = inhibition: inactive: -14.8%
Entry for O=C(/C=C/c1ccc(Cl)c([N+](=O)[O-])c1)Nc1ccc(N2CCCC2)c(Cl)c1 under max response, negative = inhibition: inconclusive: -34.3%
Entry for CCCCC1=NN2C(=N)CC(=O)N=C2S1 under max response, negative = inhibition: inactive: -27.2%

(cont.)

| SMILES | max response, negative = inhibition |
| --- | --- |
| O=C(NNS(=O)(=O)Cc1ccccc1)c1ccc([N+](=O)[O-])cc1 | inactive: -19% |
| CCOC(=O)C1=C(CNCCc2ccc(Cl)cc2)NC(=O)NC1c1cccc([N+](=O)[O-])c1 (configuration not stated) | inactive: 20.9% |
| COc1cccc(OC(C)c2ccnc3nc(/N=C/N(C)C)nn23)c1 (configuration not stated) | inactive: -13% |
| COC(=O)C1C=CC(OC2OC(COC(C)=O)C(OC(C)=O)C(OC(C)=O)C2OC(C)=O)n2c(=O)n(-c3ccccc3)c(=O)n21 (configuration not stated) | inconclusive: -49.7% |
| CN(CCc1ccccc1)C(=O)c1ccc(NC(=O)Cc2ccc(NC(=O)C3CCN(C(=O)c4ccccc4)CC3)cc2)cc1 | inconclusive: -39.9% |
| COc1ccc([C@H]2/C=C\CN(C(=O)C3CCCC3)[C@@H](C)C(=O)N2Cc2ccc(F)cc2)cc1 | inconclusive: -38.1% |
| CC1CCCN(CC(=O)Nc2ccc(S(=O)(=O)N3CCCCCC3)cc2)C1 (configuration not stated) | inconclusive: -35.6% |
| CN(CCCN1CCCCC1)C(=O)CCc1nnc(C2CCCCC2)o1 | inactive: -18.9% |
| CCCCOc1ccc(C(=O)CCN2CCCCC2)cc1 | active: -56% |
| CC1CCN(CCc2nc3cc(NC(=O)COc4ccccc4)ccc3n2C)CC1 | active: -70.6% |
| Cc1nn(Cc2ccc(F)cc2)c2sc(C(=O)Nc3nccs3)cc12 | inconclusive: -39.6% |
| O=C(N/N=C/c1c[nH]c2ccc(Br)cc12)c1ccccn1 | inactive: -12.5% |
| O=C(NCc1ccccc1)c1cccc(S(=O)(=O)NCc2ccccc2)c1 | inconclusive: -39.9% |
| COc1ccc(N(CC(=O)N/N=C/c2ccc(OC3CSC3)cc2)S(=O)(=O)c2ccccc2)cc1 | inconclusive: -30.8% |
| CC(=O)Nc1ccc(S(=O)(=O)NC(CC(=O)NCCc2ccccc2)C(C)C)cc1 (configuration not stated) | inactive: -19.5% |
| CC(=O)Nc1ccc(S(=O)(=O)N2CCN(CCCOc3ccccc3Cl)CC2)cc1 | inconclusive: -48% |
| CCC(CC)NC(=O)/C=C/c1ccccc1Cl | inconclusive: -32.2% |
| O=C(O)CCNC(=O)c1ccc(NC(=O)Cc2ccc(Cl)cc2)cc1 | inactive: -17.9% |
| CCCCN(CCCNC(=O)c1ccc2nc(N3CCOCC3)sc2c1)Cc1ccccc1 | inconclusive: -47.9% |
| CNCCCOc1ccc(Cl)cc1C(C)(C)C | inconclusive: -47.8% |
| CCc1ccc(CN2CCC(Oc3ccc(C(=O)N4CCCCC4)cc3)CC2)cc1 | inconclusive: -31.4% |
| Cc1ccc2c(c1)nnn2C1CCN(CC(=O)Nc2ccccc2N2CCOCC2)CC1 | inconclusive: -40.1% |

| SMILES | max response, negative = inhibition |
| --- | --- |
| COc1ccc(/C=C/C(=O)NC(=S)NNC(=O)c2cccnc2)cc1OC | active: -60.8% |
| COC(=O)C(CCSC)NC(=O)CNS(=O)(=O)c1ccc(Br)cc1 (configuration not stated) | inconclusive: -35.5% |
| O=C(Nc1ccccc1CC[N+](=O)[O-])N1CCN(c2ccccc2)CC1 | inactive: -28.6% |
| COc1ccc(S(=O)(=O)Nc2ccc3cn[nH]c3c2)cc1[N+](=O)[O-] | inactive: -18.8% |
| COc1cc2c3c(c1OC)C1(C=CC(=O)C=C1)CC3N(C(=O)CCC(=O)O)CC2 (configuration not stated) | inconclusive: -30.5% |
| Fc1cccc(NC(=S)NCc2ccc(Cl)cc2)c1 | inactive: -15.1% |
| COc1ccc(N(C)S(=O)(=O)c2cccc(C(=O)Nc3ccc4c(c3)OCCO4)c2)cc1 | inactive: 21.7% |
| CC1CCCCN1CCNC(=O)Cn1nc(-c2ccccc2)ccc1=O (configuration not stated) | active: -98% |
| Cc1cc(=O)oc2cc(OCC(=O)N3c4ccccc4CC3C)ccc12 (configuration not stated) | inactive: 7.32% |
| C[C@H](NC(=O)c1nc[nH]c1C(=O)N[C@@H](Cc1ccccc1)C(=O)OC(C)(C)C)C(=O)OCc1ccccc1 | inconclusive: -34.1% |
| N=C(N)SCc1nc2ccccc2c(=O)n1-c1ccccc1Cl | inactive: 18.7% |
| CCOC(=O)c1ccc(N2C(=O)C3CCOc4ccccc4C32)cc1 (configuration not stated) | inconclusive: -48.6% |
| Cc1[nH]n(-c2ccccc2)c(=S)c1C=Nc1cccc([N+](=O)[O-])c1 | active: -99.5% |
| Cn1c2ccccc2c(=O)c2cc(NCCCN3CCOCC3)ccc21 | inconclusive: -47.3% |
| COc1ccc(C(CNC(=O)Cc2ccccc2Cl)N2CCCCC2)cc1 (configuration not stated) | active: -86.3% |
| OC(CCCN1CCCCC1)(c1ccccc1)c1ccc(C(F)(F)F)cc1 (configuration not stated) | active: -99.2% |
| Cn1c(NC(=O)CC(C)(C)C)cc(=O)n(C)c1=O | inconclusive: -42.5% |
| COc1cc2c(cc1OC)CN(Cc1cc(=O)oc3cc(C)c(C)cc13)CC2 | inactive: 5.35% |
| C=CCn1c(SCC(=O)NC2CCCCC2)nnc1-c1sc(N)nc1C | active: -51% |
| COc1cccc(-c2cc(C(F)(F)F)nc(N3CCN(c4ccccc4)CC3)n2)c1 | inactive: 4.36% |
| N#Cc1c(Sc2ncc(C(F)(F)F)cc2Cl)nsc1C/C=N\OCc1ccccc1Br | inconclusive: -33.2% |
| Cc1ccc(-n2c(C)cc(/C=N/NC(N)=S)c2C)cc1 | inconclusive: -33.8% |

| SMILES | max response, negative = inhibition |
| --- | --- |
| O=C(NCc1cccs1)c1ccc2sc([C@@H]3O[C@H](CO)[C@H](O)[C@H](O)[C@H]3O)nc2c1 | inconclusive: -42.2% |
| CN(C)C(CNC(=O)c1cccc(S(=O)(=O)N2CCN(c3ccc(F)cc3)CC2)c1)c1ccccc1 (configuration not stated) | active: -80.6% |
| Cn1c(-c2ccc(Cl)cc2)cnc1N | inactive: -28% |
| CCCCn1nnc(NC(=O)c2ccco2)n1 | inconclusive: -37.1% |
| Cc1ccc(-n2nc3cc(C)c(NC(=S)NC(=O)/C=C/c4ccco4)cc3n2)cc1 | inactive: 0.165% |
| CCNc1nnc(SCC(=O)N2c3ccccc3NC(=O)CC2C)s1 (configuration not stated) | inconclusive: -39.1% |
| CC1CCCCC1NC(=O)COc1ccc(-n2cnnn2)cc1 (configuration not stated) | inactive: 27% |
| COc1ccc(NC(=O)C(=O)NCC(c2ccco2)N2CCc3ccccc3C2)cc1OC (configuration not stated) | inactive: -12% |
| Cc1ccc(S(=O)(=O)Cc2ccc(C(=O)N3CCC(C(N)=O)CC3)o2)cc1 | inactive: -8.11% |
| CN(C[C@H](Cc1ccccc1)N(C[C@H](Cc1ccccc1)N(CCc1cc(C(F)(F)F)cc(C(F)(F)F)c1)N=O)N=O)N=O | inconclusive: -47.8% |
| CCn1c(=O)[nH]c2ccccc2c1=O | active: -56.3% |
| Clc1ccc(-c2nc(NCCCN3CCOCC3)c3ccccc3n2)cc1 | inactive: 75.4% |
| CCN(CC)c1ccc(/C=C2\SC(N)=NC2=O)cc1 | inactive: -15.4% |
| CC(Oc1ccc(Cl)cc1Cl)C(=O)Nc1ncccn1 (configuration not stated) | inactive: -5.3% |
| O=C(CC1SC2=NCCN2C1=O)Nc1ccc(Cl)cc1 (configuration not stated) | inconclusive: -32.9% |
| CCN1CCN(C(=O)c2cc3cc4cc(OC)ccc4nc3s2)CC1 | inconclusive: -37% |
| CCOC(=O)C1CCCN(Cc2nc(N)nc(Nc3ccc(Cl)cc3)n2)C1 (configuration not stated) | inconclusive: -39.7% |
| Cc1cccc(-n2c(CCn3nc(C)c([N+](=O)[O-])c3C)n[nH]c2=S)c1 | inconclusive: -30.6% |
| O=C(NC1CCCCC1)N1CCCC1 | inconclusive: -40.6% |
| Cc1noc(C)c1COc1ccc(C(=O)Nc2ccccc2)cc1 | active: -55.4% |
| COc1ccc(NC(=O)N(C)C[C@H]2OCc3cnnn3CCCC(=O)N([C@H](C)CO)C[C@@H]2C)cc1 | inactive: 2.67% |
